In paper PMC12561301:
No constants are given. Whether binding was seen depends on the method and setting. In cells and extracts the contact can be indirect. Some binding calls cover weakened binding; strength is not graded here. Each block holds one substance with its values, some of them ahead of it.

Amino acid sequences for entries named in this document (tags omitted).
UniProt P52631: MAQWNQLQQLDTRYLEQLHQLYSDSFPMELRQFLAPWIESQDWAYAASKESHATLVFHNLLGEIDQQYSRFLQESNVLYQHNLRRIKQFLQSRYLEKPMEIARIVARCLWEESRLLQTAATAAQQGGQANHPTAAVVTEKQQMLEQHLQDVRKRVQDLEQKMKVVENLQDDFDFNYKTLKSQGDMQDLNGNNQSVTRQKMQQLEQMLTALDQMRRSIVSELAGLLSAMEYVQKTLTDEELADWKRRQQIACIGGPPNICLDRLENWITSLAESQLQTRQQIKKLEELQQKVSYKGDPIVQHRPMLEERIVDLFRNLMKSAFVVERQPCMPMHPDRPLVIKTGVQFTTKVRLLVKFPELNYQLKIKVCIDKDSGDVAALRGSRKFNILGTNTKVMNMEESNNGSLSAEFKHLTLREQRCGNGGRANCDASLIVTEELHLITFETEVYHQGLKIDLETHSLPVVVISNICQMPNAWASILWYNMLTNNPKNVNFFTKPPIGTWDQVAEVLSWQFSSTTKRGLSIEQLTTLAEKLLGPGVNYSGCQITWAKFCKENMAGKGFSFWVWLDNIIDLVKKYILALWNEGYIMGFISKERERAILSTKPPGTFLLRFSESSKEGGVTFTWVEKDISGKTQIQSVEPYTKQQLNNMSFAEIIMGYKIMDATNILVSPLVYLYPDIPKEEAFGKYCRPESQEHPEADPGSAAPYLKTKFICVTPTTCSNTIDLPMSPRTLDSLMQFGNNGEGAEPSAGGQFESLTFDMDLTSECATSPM
UniProt P40763: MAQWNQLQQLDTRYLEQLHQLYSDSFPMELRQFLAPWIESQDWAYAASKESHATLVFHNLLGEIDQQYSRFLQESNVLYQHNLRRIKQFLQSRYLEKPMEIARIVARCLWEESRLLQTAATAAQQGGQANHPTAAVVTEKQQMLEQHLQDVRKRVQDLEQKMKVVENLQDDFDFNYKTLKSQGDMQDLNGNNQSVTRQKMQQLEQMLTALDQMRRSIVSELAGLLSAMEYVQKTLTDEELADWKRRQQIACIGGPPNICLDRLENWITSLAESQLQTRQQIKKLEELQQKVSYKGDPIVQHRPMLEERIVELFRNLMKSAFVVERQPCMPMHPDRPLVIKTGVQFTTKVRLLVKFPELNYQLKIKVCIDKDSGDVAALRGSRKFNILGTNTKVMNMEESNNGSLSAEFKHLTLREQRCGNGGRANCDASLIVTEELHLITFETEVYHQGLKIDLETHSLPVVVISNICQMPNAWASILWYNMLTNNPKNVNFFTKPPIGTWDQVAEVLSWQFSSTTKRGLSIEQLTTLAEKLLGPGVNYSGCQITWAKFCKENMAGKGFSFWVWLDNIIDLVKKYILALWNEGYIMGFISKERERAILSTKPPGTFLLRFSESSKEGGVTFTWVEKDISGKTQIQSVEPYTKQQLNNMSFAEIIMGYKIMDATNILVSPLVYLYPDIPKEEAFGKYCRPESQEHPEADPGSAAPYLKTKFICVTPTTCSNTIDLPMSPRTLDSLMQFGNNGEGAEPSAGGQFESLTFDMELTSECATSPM
UniProt G3V6X8: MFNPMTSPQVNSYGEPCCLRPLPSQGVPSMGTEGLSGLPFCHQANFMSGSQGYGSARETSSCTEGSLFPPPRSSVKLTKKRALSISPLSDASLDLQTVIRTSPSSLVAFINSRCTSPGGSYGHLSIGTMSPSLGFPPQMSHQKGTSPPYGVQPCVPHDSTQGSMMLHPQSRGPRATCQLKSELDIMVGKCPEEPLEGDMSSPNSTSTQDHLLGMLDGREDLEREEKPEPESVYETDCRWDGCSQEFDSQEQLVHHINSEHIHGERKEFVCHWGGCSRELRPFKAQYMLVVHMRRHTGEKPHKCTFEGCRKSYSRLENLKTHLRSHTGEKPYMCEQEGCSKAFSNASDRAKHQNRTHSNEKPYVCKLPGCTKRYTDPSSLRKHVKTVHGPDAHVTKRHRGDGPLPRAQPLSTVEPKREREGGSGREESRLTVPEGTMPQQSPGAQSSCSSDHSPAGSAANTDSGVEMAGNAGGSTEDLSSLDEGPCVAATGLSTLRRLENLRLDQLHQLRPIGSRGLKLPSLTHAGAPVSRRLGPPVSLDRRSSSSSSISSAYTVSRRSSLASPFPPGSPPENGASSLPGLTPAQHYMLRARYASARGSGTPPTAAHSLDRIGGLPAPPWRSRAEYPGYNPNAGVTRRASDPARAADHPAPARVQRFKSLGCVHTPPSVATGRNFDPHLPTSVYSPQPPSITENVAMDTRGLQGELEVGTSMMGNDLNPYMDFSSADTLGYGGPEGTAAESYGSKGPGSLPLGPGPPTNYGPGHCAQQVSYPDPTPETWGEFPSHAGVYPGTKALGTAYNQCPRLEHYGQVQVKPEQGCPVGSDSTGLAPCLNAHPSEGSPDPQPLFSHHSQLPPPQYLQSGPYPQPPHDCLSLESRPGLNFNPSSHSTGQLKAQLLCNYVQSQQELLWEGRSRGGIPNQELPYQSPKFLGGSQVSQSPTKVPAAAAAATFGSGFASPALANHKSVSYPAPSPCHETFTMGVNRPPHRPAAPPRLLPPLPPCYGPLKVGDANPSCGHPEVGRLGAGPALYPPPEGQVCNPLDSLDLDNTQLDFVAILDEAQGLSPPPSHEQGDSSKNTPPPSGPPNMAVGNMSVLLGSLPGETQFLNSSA
UniProt P08151: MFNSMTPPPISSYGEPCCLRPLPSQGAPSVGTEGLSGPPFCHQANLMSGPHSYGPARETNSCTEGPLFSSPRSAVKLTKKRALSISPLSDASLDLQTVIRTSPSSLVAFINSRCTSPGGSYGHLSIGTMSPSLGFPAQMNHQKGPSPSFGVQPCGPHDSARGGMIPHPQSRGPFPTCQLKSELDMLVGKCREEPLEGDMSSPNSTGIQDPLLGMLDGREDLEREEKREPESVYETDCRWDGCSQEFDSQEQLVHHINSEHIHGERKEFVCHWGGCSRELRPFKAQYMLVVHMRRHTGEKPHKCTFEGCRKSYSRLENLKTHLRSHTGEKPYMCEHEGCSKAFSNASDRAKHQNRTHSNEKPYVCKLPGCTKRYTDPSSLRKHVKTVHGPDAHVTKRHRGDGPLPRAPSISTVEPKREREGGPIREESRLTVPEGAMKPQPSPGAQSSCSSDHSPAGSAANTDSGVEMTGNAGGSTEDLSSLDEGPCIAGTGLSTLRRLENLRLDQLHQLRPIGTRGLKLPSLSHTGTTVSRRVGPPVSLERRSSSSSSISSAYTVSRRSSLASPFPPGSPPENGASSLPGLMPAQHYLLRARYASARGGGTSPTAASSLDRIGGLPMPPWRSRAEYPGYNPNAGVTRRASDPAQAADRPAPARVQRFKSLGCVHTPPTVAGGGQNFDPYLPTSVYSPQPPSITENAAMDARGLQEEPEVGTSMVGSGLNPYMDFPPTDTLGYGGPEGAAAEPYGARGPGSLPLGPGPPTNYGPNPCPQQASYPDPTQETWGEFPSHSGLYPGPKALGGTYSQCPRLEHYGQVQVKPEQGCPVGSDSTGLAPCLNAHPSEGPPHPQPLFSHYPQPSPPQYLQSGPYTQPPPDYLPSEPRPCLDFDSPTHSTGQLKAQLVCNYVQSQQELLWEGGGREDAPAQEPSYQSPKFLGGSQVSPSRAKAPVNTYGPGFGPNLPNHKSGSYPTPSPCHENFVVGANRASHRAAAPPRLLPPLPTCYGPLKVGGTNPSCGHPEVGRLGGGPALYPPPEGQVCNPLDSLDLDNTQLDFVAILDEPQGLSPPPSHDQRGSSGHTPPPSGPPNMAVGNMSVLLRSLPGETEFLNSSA

How the values were obtained:
[1] = biological target: Flag-tagged STAT3 (signal transducer and activator of transcription 3) (not stated (a rat cDNA plasmid, pcDNA3-flag-ratSTAT3-WT, is named for Figure 4F)) (UniProt P52631); assay: co-IP; 293T cells transfected with STAT3 overexpression plasmids with different tags, treated with IL-6 (20 ng/mL) and Ssb1 (or S3I-201) for 24 h before harvest; IP with a Flag antibody
[2] = biological target: STAT3, endogenous in HSC-T6 cells (rat (endogenous in HSC-T6)) (UniProt P52631); assay: co-IP; endogenous proteins in lysates of HSC-T6 and LX-2 cells, IP-WB; HSC-T6 also treated with TGF-β1 and Ssb1 for 24 h
[3] = biological target: STAT3, endogenous in LX-2 cells (human (endogenous in LX-2)) (UniProt P40763); assay: as above

binding [1]: binds
Substance: Flag-tagged STAT3 (signal transducer and activator of transcription 3) (from UniProt P52631 1-770)

binding [2]: binds
Substance: Gli1 (glioma-associated oncogene-1), endogenous in HSC-T6 cells (from UniProt G3V6X8 1-1109)

binding [3]: binds
Substance: Gli1 (glioma-associated oncogene-1), endogenous in LX-2 cells (from UniProt P08151 1-1106)
